Results published in the supplement of paper PMC10849652.
This is one part of the list.

By UniProt entry, the sequences of proteins in these tests, tags left out. Where a name states a change or a piece, a line headed by the entry shows the natural chain unless it says otherwise.
UniProt P20339: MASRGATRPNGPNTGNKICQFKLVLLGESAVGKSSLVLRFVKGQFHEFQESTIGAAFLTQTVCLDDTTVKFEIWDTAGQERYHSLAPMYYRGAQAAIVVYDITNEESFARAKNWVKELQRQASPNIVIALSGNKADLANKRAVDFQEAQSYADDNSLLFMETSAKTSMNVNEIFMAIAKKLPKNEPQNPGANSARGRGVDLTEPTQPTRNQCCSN
UniProt P61006: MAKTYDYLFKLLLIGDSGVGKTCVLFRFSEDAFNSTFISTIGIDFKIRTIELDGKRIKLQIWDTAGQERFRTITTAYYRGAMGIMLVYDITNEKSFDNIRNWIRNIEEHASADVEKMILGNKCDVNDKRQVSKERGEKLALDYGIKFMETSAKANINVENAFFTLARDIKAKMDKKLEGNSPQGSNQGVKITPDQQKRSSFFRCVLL
UniProt Q3YEC7: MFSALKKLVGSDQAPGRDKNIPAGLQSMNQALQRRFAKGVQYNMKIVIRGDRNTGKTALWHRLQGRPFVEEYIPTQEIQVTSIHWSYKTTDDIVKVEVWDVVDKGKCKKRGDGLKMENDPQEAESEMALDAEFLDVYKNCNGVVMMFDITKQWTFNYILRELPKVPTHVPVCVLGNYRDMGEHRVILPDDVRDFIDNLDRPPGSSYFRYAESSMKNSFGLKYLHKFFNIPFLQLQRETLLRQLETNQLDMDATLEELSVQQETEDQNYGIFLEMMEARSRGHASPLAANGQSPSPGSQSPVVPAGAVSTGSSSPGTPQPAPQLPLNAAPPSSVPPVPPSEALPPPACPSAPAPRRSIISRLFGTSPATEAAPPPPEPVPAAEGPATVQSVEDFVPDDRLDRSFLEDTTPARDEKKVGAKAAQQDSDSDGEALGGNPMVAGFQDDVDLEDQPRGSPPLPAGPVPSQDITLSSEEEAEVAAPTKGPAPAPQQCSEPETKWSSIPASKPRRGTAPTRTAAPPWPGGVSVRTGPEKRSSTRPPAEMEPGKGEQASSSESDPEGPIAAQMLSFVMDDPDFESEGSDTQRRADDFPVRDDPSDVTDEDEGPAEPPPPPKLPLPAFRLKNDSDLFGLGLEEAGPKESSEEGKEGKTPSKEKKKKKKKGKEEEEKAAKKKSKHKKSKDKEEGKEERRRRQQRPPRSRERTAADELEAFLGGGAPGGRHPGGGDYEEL
UniProt Q8N0T1: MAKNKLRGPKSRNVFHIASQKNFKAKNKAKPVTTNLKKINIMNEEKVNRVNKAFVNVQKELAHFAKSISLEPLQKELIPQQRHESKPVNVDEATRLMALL
UniProt O14966: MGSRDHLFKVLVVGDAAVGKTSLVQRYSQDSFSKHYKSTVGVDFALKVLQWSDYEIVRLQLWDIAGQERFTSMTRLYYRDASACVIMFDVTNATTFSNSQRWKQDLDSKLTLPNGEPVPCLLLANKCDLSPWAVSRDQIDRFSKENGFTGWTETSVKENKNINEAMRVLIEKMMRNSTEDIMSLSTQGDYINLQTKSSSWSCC
UniProt P06400: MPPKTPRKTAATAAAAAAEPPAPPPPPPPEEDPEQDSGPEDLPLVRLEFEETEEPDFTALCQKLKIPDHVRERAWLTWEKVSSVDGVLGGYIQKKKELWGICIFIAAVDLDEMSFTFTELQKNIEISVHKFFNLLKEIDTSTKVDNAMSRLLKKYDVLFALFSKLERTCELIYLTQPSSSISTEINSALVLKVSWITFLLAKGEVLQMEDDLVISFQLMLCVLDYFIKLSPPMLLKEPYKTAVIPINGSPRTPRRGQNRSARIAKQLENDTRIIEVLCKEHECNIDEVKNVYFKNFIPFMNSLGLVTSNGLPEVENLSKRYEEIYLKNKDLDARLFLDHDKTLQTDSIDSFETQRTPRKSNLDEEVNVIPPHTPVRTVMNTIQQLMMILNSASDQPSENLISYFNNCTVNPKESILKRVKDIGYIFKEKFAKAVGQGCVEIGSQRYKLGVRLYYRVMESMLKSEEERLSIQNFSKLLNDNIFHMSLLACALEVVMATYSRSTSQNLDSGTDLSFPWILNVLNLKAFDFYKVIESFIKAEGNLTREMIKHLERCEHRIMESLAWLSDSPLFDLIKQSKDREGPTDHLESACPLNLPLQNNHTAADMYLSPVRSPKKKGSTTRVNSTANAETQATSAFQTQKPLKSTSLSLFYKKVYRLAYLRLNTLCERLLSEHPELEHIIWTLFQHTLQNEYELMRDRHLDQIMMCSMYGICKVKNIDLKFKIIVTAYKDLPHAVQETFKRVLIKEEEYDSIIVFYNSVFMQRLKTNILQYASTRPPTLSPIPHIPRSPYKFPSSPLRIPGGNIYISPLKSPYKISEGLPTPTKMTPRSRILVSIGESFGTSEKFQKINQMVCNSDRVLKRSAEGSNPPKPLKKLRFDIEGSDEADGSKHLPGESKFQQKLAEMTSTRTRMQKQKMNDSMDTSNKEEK
UniProt P10114: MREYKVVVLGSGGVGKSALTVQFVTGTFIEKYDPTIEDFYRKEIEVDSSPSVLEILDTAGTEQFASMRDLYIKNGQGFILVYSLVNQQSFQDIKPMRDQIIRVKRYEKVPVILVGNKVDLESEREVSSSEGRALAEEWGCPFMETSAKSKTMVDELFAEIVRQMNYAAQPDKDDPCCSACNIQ
UniProt Q7Z6M1: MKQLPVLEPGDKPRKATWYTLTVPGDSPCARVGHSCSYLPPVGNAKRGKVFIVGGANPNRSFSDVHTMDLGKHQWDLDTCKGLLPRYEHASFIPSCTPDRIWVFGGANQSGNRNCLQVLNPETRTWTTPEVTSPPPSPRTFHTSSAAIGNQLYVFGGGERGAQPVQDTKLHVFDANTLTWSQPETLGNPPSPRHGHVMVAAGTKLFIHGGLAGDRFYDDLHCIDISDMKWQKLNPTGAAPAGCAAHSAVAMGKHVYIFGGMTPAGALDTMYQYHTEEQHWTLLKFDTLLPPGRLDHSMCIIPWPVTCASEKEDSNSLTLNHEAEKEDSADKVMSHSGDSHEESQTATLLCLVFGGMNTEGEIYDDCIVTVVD

How the values were obtained:
Assay in all cases: log2 fold change, soluble protein after heating vs DMSO (PISA); higher = thermal stabilisation; K562 cells, 10 uM, 30 min; active = over 0.2 and 3.5 SD of the protein, either way, in both replicates (recomputed)
[1] = compound: C1=CC=C(C=C1)[C@H](COC2=CC3=C(C=C2)NC(=O)N3)NC(=O)C4=CC=CN(C4=O)CC5=CC(=C(C=C5)F)F
Summary of the method: (§1)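 Values are thermal stability changes relative to control samples and are taken from duplicates. They are stated as log2 fold changes. Before quantification by TMTpro 16plex LC-MS/MS with equalised channel sums, K562 cells at 2×10^6 cells/mL were treated with 10 μM compound for 30 min, heated in aliquots for 3 min across 48°C-58°C, pooled, extracted in PBS with 0.5% NP-40 at 4°C, and centrifuged at 21,000xg for 90 min to give the soluble supernatant.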

[2] = compound: CC1=C(SC2=C1C(=N[C@H](C3=NN=C(N32)C)CC(=O)N)C4=CC=C(C=C4)Cl)C
Summary of the method: as §1

[3] = compound: CC1=C2C(=CC=C1)N=C(N(C2=O)C3=CC=CC=C3C)CN4C=NC5=C(N=CN=C54)N
Summary of the method: as §1

[4] = compound: Cc1sc2c(c1C)C(c1ccc(Cl)cc1)=N[C@@H](CC(=O)OC(C)(C)C)c1nnc(C)n1-2
Summary of the method: as §1

[5] = compound: c1ccc([C@@H]2C[C@H]2NC2CCNCC2)cc1
Summary of the method: as §1

Measured: log2 fold change

RAB5A (UniProt P20339)
inactive: [1] 0.013 | [2] 0.024 | [3] -0.072 | [4] -0.018 | [5] 0.018

RAB8A (UniProt P61006)
inactive: [1] 0.052 | [2] -0.013 | [3] 0.027 | [4] -0.029 | [5] -0.066

RAB18 (UniProt H0Y6T8)
inactive: [1] -0.107 | [2] 0.019 | [3] 0.093 | [4] 0.163 | [5] 0.093

RABL6 (UniProt Q3YEC7)
inactive: [1] -0.013 | [2] -0.003 | [3] -0.018 | [4] 0.013 | [5] 0.007

RBIS (UniProt Q8N0T1)
inactive: [1] 0.035 | [2] -0.034 | [3] -0.02 | [4] 0.101 | [5] 0

RAB29 (UniProt O14966)
inactive: [1] -0.011 | [2] 0.087 | [3] 0.11 | [4] 0.109 | [5] -0.088

RB1 (UniProt P06400)
inactive: [1] -0.038 | [2] 0.064 | [3] 0.048 | [4] 0.011 | [5] 0

RAP2A (UniProt P10114)
inactive: [1] 0.025 | [2] 0.014 | [3] 0.059 | [4] 0.022 | [5] -0.036

RABEPK (UniProt Q7Z6M1)
inactive: [1] -0.007 | [2] 0.033 | [3] -0.018 | [4] -0.031 | [5] 0.033
